This is an account of results in publication PMC12040169 (PLOS Biology, 2025).

Some of the results follow.

For the experiment, the system named is T1, CTL2-GFP (C. trachomatis L2/434/Bu, GFP-expressing).
T1 construct: L2/434/Bu, GFP-expressing
On the set-up: species or system HeLa; Intracellular C. trachomatis growth in HeLa cells, bulk GFP fluorescence relative to DMSO. The conditions noted are these: bulk GFP, single well; 28.5 h, 10 µM; inhibitor.
Consider `O=C(Nc1nc(-c2cccc([N+](=O)[O-])c2)cs1)c1ccc(S(=O)(=O)N2CCCC2)cc1` [CBK102813], for which the “% of control remaining” value came out at 113.839%.

As to `CO[C@H]1CN(C)C[C@@H]1NC(=O)c1cccc2c1NCCC2` [CBK307107], the “% of control remaining” value is on record as 118.003%.

For the compound `CCCCOC(=O)CCNc1n[nH]c(=O)[nH]c1=O` [CBK027838], the “% of control remaining” value amounted to 105.048%.

Regarding `COc1ccc(C2Nc3ccccc3C(=O)N2c2ccc(C)cc2)cc1Cn1nc(C)c([N+](=O)[O-])c1C` (stereo not drawn) [CBK263703], the “% of control remaining” value is listed as 67.9054%.

For the compound `Cc1nc(C(F)(F)F)ccc1C(=O)NCC(C)(C)N1CCCCC1` [CBK281864], the “% of control remaining” value is reported as 162.92%.

Take `O=C(/C=C/c1ccccc1)Oc1cccc(NC(=O)C2CC(=O)N(c3ccccc3)C2)c1` (stereo not drawn) [CBK264330]: the “% of control remaining” value came to 103.429%.

Regarding `CC(C)Nc1cncc(OCCCc2ccncc2)n1` [CBK115881], the “% of control remaining” value came out at 115.713%.

Regarding `Cc1cc2c(cc1C)N(C(=O)CSc1ncn[nH]1)C(C)(C)c1ssc(=S)c1-2` [CBK263786], the “% of control remaining” value is listed as 109.745%.

With `CCN1CCCCC1CNC(=O)c1sc(C)nc1C` (stereo not drawn) [CBK282206], the “% of control remaining” value turned out to be 113.209%.

On to `CN1CCN(Cc2c(O)ccc3occ(C(=O)c4ccccc4)c23)CC1` [CBK111438], for which the “% of control remaining” value was found to be 108.966%.

On to `CCC(C)(C)c1ccc(S(=O)(=O)NCC2CC2)cc1` [CBK044994], for which the “% of control remaining” value is recorded as 113.52%.

`O=C(c1ccno1)N1CCC(Cc2ccccc2)CC1` [CBK200185]: the “% of control remaining” value turned out to be 172.434%.

Regarding `Nc1ncc(-c2ccc(C(F)(F)F)cc2)c(C2CCCN(C(=O)c3ccccc3)C2)n1` (stereo not drawn) [CBK285790], the “% of control remaining” value is given as 114.51%.

For the compound `N#Cc1ccc(COc2cccc(Cl)c2Cl)cc1` [CBK002611], the “% of control remaining” value stood at 170.813%.

As for `CCNC(=O)N1CC2(CCN(CCn3cccc3)CC2)c2ccccc21` [CBK143945], the “% of control remaining” value was 100%.

Take `NC(=O)CN1CCC(Cc2ccccc2)CC1` [CBK138319]: the “% of control remaining” value worked out at 97.2242%.

Take `Cc1c(C(=O)N2CCn3c(C)nnc3C2)sc2cccc(F)c12` [CBK304923]: the “% of control remaining” value is recorded as 111.687%.

`O=C(C1=C(O)C(=O)N(CCCn2ccnc2)C1c1cccc([N+](=O)[O-])c1)c1cccs1` (stereo not drawn) [CBK264591]: the “% of control remaining” value is reported as 100%.

For `CC(=O)Nc1ccc(/C(C)=N\NC(=O)CCN2CCCCC2)cc1` [CBK263509], the “% of control remaining” value worked out at 100%.

For the compound `COc1cc(-c2cn3ccnc3c(N3CCN(c4ccncc4)CC3)n2)cc(OC)c1OC` [CBK037896], the “% of control remaining” value was 153.269%.

On to `CCN(C(=O)c1ccc(=O)[nH]c1)C(CC1CCCCC1)c1ccccc1` (stereo not drawn) [CBK062678], for which the “% of control remaining” value came to 58.7956%.

Take `COc1ccc(-c2cn(-c3ccc(OC(F)(F)F)cc3)nn2)cc1` [CBK113024]: the “% of control remaining” value is given as 122.351%.

For the compound `O=C(NCCSCc1c(F)cccc1Cl)Nc1ccccc1` [CBK265340], the “% of control remaining” value is 98.1077%.

Take `COC(=O)Cn1c(=O)c2c(nc3oc(C(C)(C)C)cn32)n(C)c1=O` [CBK306029]: the “% of control remaining” value was found to be 105.039%.

For the compound `CN1[C@@H](CCC(=O)N2CCN(c3ccccn3)CC2)CNC(=O)[C@H]2NCC[C@H]21` [CBK289031], the “% of control remaining” value stood at 107.288%.

Regarding `O=C(O)c1ccc(NC2OC(CO)C(O)C2O)cc1` (stereo not drawn) [CBK218836], the “% of control remaining” value was found to be 113.595%.

On to `O=C(CN1CCC(c2ccc(F)cc2)CC1)Nc1nccs1` [CBK283566], for which the “% of control remaining” value was 109.785%.

Consider `Fc1cccc(-c2nc(-c3cccnc3)no2)c1` [CBK270260], for which the “% of control remaining” value is on record as 150.036%.

Regarding `CC(=O)c1ccccc1-c1cnc(N(C)S(C)(=O)=O)c(C(=O)NCCc2ccccc2)c1` [CBK076516], the “% of control remaining” value came out at 126.497%.

For `N=C(N)SCCCCSC(=N)N` [CBK278304B], the “% of control remaining” value amounted to 106.142%.

Take `CCC1(CC)OC(N[C@@H](CO)c2ccccc2)=NC1=O` [CBK126756]: the “% of control remaining” value was 139.014%.

With `CN1CCN(C(=S)SCc2nc(N)nc(Nc3ccc(F)cc3)n2)CC1` [CBK265230], the “% of control remaining” value was found to be 125.811%.

`CCC1(C)CC(=O)c2cc(NC(=O)N(CCO)CCO)ccc2O1` (stereo not drawn) [CBK307003]: the “% of control remaining” value worked out at 100.735%.

As for `CC(C)NC(=O)c1sc2ccccc2c1C1CN(C(=O)CC2CCCCC2)CCO1` (stereo not drawn) [CBK285869], the “% of control remaining” value worked out at 131.843%.

On to `COc1ccc(C(=O)NC(NCc2ccco2)C(Cl)(Cl)Cl)cc1` (stereo not drawn) [CBK262279], for which the “% of control remaining” value is 65.0542%.

On to `CC(=O)Nc1ccc(S(=O)(=O)N2CCC(N3CCOCC3)CC2)cc1` [CBK264653G], for which the “% of control remaining” value is on record as 92.7584%.

On to `O=C(NCCCC1CCOC1)c1cc2ccc(F)cc2[nH]1` (stereo not drawn) [CBK283213], for which the “% of control remaining” value amounted to 70.9266%.

`NC1CCCN(C(=O)c2ccc(Oc3cccc(Br)c3)nc2)C1` (stereo not drawn) [CBK304747]: the “% of control remaining” value worked out at 80.6031%.

Consider `Cc1cc(C2CCCCCN2C(=O)c2cc(C(C)C)on2)on1` (stereo not drawn) [CBK281733], for which the “% of control remaining” value is listed as 154.724%.

In the case of `CS(=O)(=O)N1CC2(CCN(C(=O)[C@@H](N)COCc3ccccc3)CC2)c2ccccc21` [CBK022597C], the “% of control remaining” value was determined as 93.5536%.

As for `COCCn1cc(C(=O)N2CCOC3CCCCC32)c2ccccc21` (stereo not drawn) [CBK305288], the “% of control remaining” value worked out at 120.747%.

For the compound `COc1ccc(Cc2nc3ccccc3n2CCc2ccccc2)cc1` [CBK266385], the “% of control remaining” value is recorded as 122.774%.

With `CSc1nc2ccc(Nc3cc(C)nc4ncnn34)cc2s1` [CBK297724], the “% of control remaining” value came out at 106.196%.

As to `O=C(COCc1nc2ccccc2[nH]1)N1CCC(c2ccccc2)C1` (stereo not drawn) [CBK281840], the “% of control remaining” value turned out to be 169.205%.

Regarding `Cc1nc2sccn2c1-c1csc(Nc2cccc(C(=O)O)c2)n1` [CBK263291B], the “% of control remaining” value came to 108.722%.

As to `CN(C)c1ccc(-c2[nH][nH]c(=O)c2CCCN)cc1` [CBK288406], the “% of control remaining” value stood at 119.771%.

With `CCCCc1ccc(NC(=S)NC(=O)c2ccc(OC)c(OC)c2)cc1` [CBK157691], the “% of control remaining” value is on record as 104.945%.

As to `O=C(NC1Cc2ccccc2C1)c1cscn1` [CBK200363], the “% of control remaining” value came to 109.895%.

For `CS(=O)(=O)c1ccc(CNC(=O)c2ccccc2Nc2cccc(C(F)(F)F)c2)cc1` [CBK149580], the “% of control remaining” value was 102.886%.

`COc1cccc(C(=O)N2CCN(C)C(=O)C2Cc2ccccc2-c2ccccc2)c1OC` (stereo not drawn) [CBK285828]: the “% of control remaining” value is 105.713%.

Take `CSCCCN1C(=O)CN(Cc2ccccc2)C1=O` [CBK162363]: the “% of control remaining” value was 83.0106%.

For the compound `COc1ccc([C@@]23CC[C@H](NC(=O)CS(=O)(=O)c4ccccc4)C[C@@H]2N(C)CC3)cc1OC` [CBK036445], the “% of control remaining” value amounted to 147.03%.

On to `COCc1cc(C)n(CC(=O)Nc2ccc(N3CCOCC3)cc2)c(=O)c1C#N` [CBK270190], for which the “% of control remaining” value stood at 136.329%.

As to `O=C(O)c1ccc(CNC(=O)c2ccc3c(c2)C(=O)N(CC2CCCO2)C3=O)cc1` (stereo not drawn) [CBK264256], the “% of control remaining” value is given as 125.433%.

Consider `Cc1ccc2c(c1)CCN(S(C)(=O)=O)C21CCN(CCCOc2ccccc2)CC1` [CBK081066], for which the “% of control remaining” value is on record as 100%.

Take `COc1cnc(-c2cccc(C(=O)N(C)C)c2)c(NC(=O)c2ccccc2)n1` [CBK145385]: the “% of control remaining” value amounted to 104.325%.

Turning to `Cc1ccc(NC(=O)c2cnc3sc(C)cn3c2=O)cc1` [CBK287711], the “% of control remaining” value was found to be 116.471%.

For `CC(NC(=O)C1CCN(CCn2cnc3c2c(=O)n(C)c(=O)n3C)CC1)c1ccccc1` (stereo not drawn) [CBK148624], the “% of control remaining” value is listed as 151.383%.

For the compound `CC1Oc2ccccc2OC1C(=O)Nc1ccc([N+](=O)[O-])cc1Cl` (stereo not drawn) [CBK269412], the “% of control remaining” value is reported as 108.885%.

With `O=C(NCCN1CCCC1)c1ccc(N2CCN(C(=O)c3ccccc3C(F)(F)F)CC2)nn1` [CBK153217], the “% of control remaining” value is recorded as 124.451%.

In the case of `COc1cc2c(cc1-c1cn(CCN3CCCOC3=O)nn1)CCC2` [CBK306515], the “% of control remaining” value was 105.027%.

With `Cc1cc(C)n(CC(C)CNC(=O)Cc2csc(C(C)(C)C)n2)n1` (stereo not drawn) [CBK305340], the “% of control remaining” value is listed as 104.908%.

Regarding `CCNC1(Cc2cc(C(=O)N3CCCCC3)on2)COC1` [CBK289671], the “% of control remaining” value was determined as 142.398%.

On to `COc1cc(/C=N\Nc2nnc3c(n2)[nH]c2c(C)cccc23)cc(Br)c1O` [CBK262375], for which the “% of control remaining” value is recorded as 112.785%.

For `COc1ccccc1OCc1ccc(C(=O)N2CCN(c3cccc(C(F)(F)F)c3)CC2)o1` [CBK074417], the “% of control remaining” value is given as 45.3655%.

`CN(C)CCN(C)[C@H]1CCCC[C@@H]1N(C)C(=O)Cc1ccc(Br)cc1` [CBK023819C]: the “% of control remaining” value worked out at 64.4125%.

In the case of `COc1ccc(OCCNC(=O)C2(c3ccc(OC)cc3)CC2)cc1` [CBK149821], the “% of control remaining” value is listed as 163.2%.

Take `Oc1c(C(Nc2cccnc2)c2ccccc2OCc2ccccc2)ccc2cccnc12` (stereo not drawn) [CBK268587]: the “% of control remaining” value is 50.2787%.

Turning to `CCOc1ccsc1C(=O)N1CCc2ccccc2C1` [CBK200339], the “% of control remaining” value was 136.16%.

On to `O=C(Nc1nnc(C2=COCCO2)o1)c1ccc(Cl)cc1Cl` [CBK287419], for which the “% of control remaining” value was 135.286%.

`COc1ccc(NS(=O)(=O)c2ccc(NC(=S)NC(=O)C(C)(C)C)cc2)cc1` [CBK268990]: the “% of control remaining” value was 62.5534%.

As to `CCOc1cc(C)c(-c2cc(N)[nH]n2)cc1OCC` [CBK288216], the “% of control remaining” value is 143.845%.

For the compound `O=C(/C=C/c1ccc([N+](=O)[O-])cc1)Nc1ccc(O)cc1C(=O)O` [CBK263613], the “% of control remaining” value worked out at 100%.

On to `CS(=O)(=O)c1ccc(-c2c[nH]c([C@@H]3COCCN3Cc3c[nH]c4ccccc34)n2)cc1` [CBK289321], for which the “% of control remaining” value is given as 136.967%.

As to `O=[N+]([O-])c1ccc(S(=O)(=O)NCCSCc2ccco2)cc1` [CBK267503], the “% of control remaining” value is on record as 95.9468%.

Regarding `COc1ccc(-n2cc(-c3cccc(C(F)(F)F)c3)nn2)cc1OC` [CBK112933], the “% of control remaining” value worked out at 92.6179%.

As to `CC(=O)N1C[C@@H]2C[C@H](C1)c1ccc(NS(=O)(=O)c3cccc(F)c3)c(=O)n1C2` [CBK288710], the “% of control remaining” value was determined as 110.016%.

For `Cc1ccc(-c2nc3ncccc3o2)cc1NC(=O)c1ccc(-c2cccc([N+](=O)[O-])c2)o1` [CBK268548], the “% of control remaining” value was 154.96%.
